PubChem BioAssay AID602196, INSERM – 2012

Assay: 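Knock-downs that protect lung cancer cells from cisplatin or sensitise them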
System: human A549 lung cancer cells
Knock-down reagent: siRNA pair against human genes
Timing: 48 h transfection before cisplatin; time from cisplatin to read-out not stated
Conditions: cisplatin at a dose killing half of control-siRNA cells; exact dose and duration not given
Measured: 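Shift in cisplatin death relative to control siRNA, from -50 (all cells die) to +50 (no cells die); siRNAs harmful on their own scored 0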
Reading the numbers: two-siRNA summed score (-2 to +2): higher = both siRNAs protect from cisplatin killing; -2 means both sensitise; mean protection from cisplatin (shift in death): higher = protection from cisplatin killing
Hit rule: 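siRNAs harmful alone (LDH or WST-1) get 0; others get +1 for less and -1 for more cisplatin killing; genes are active when the two siRNAs give the same sign, summing to ±2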
Meaning of the calls: active = both siRNAs shift cisplatin killing the same way; inactive = no consistent shift, or siRNA harmful alone
Here is an unselected part of about 23,000 deposited reagents. Over the whole deposit, 455 (2%) got an active call. 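Active includes both protection and sensitisation; some change values fall well beyond the stated -50 to +50 range.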 Further read-outs or replicates are left out here. Not given: the amount of reagent.

CMSS1
- two-siRNA summed score (-2 to +2): 0
- mean protection from cisplatin (shift in death) (%): -0.1
- outcome: inactive

CPVL
- two-siRNA summed score (-2 to +2): -1
- mean protection from cisplatin (shift in death) (%): -23
- outcome: inactive

EPHA1
- two-siRNA summed score (-2 to +2): 1
- mean protection from cisplatin (shift in death) (%): 11.9
- outcome: inactive

LOC388763
- two-siRNA summed score (-2 to +2): 1
- mean protection from cisplatin (shift in death) (%): 0.4
- outcome: inactive

AGFG1
- two-siRNA summed score (-2 to +2): 1
- mean protection from cisplatin (shift in death) (%): 16.4
- outcome: inactive

LOC348801
- two-siRNA summed score (-2 to +2): 0
- mean protection from cisplatin (shift in death) (%): 14
- outcome: inactive

QTGAL
- two-siRNA summed score (-2 to +2): 0
- mean protection from cisplatin (shift in death) (%): 5.7
- outcome: inactive

AFDN
- two-siRNA summed score (-2 to +2): 1
- mean protection from cisplatin (shift in death) (%): 16.2
- outcome: inactive

ANO9
- two-siRNA summed score (-2 to +2): 1
- mean protection from cisplatin (shift in death) (%): 22.7
- outcome: inactive

KIAA1276
- two-siRNA summed score (-2 to +2): 0
- mean protection from cisplatin (shift in death) (%): -2.3
- outcome: inactive

PRNP
- two-siRNA summed score (-2 to +2): 0
- mean protection from cisplatin (shift in death) (%): -10.3
- outcome: inactive

TENT5C
- two-siRNA summed score (-2 to +2): 0
- mean protection from cisplatin (shift in death) (%): -2
- outcome: inactive
